Measured values from the supplement of paper PMC10849652.
The other results are listed elsewhere or left out.

By UniProt entry, the sequences of proteins in these tests, tags left out. Where a name states a change or a piece, a line headed by the entry shows the natural chain unless it says otherwise.
UniProt Q7L592: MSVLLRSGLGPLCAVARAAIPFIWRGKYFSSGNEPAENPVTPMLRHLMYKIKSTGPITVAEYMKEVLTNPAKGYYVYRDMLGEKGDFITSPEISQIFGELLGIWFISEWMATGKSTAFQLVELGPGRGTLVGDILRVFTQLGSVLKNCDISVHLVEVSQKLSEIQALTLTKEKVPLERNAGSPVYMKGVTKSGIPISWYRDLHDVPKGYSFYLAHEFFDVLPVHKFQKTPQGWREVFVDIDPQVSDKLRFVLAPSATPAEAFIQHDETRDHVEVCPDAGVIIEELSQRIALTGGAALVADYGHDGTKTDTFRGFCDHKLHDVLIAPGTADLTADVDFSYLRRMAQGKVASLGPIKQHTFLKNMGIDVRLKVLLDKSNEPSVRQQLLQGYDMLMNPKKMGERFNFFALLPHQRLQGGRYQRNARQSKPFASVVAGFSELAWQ
UniProt P42695: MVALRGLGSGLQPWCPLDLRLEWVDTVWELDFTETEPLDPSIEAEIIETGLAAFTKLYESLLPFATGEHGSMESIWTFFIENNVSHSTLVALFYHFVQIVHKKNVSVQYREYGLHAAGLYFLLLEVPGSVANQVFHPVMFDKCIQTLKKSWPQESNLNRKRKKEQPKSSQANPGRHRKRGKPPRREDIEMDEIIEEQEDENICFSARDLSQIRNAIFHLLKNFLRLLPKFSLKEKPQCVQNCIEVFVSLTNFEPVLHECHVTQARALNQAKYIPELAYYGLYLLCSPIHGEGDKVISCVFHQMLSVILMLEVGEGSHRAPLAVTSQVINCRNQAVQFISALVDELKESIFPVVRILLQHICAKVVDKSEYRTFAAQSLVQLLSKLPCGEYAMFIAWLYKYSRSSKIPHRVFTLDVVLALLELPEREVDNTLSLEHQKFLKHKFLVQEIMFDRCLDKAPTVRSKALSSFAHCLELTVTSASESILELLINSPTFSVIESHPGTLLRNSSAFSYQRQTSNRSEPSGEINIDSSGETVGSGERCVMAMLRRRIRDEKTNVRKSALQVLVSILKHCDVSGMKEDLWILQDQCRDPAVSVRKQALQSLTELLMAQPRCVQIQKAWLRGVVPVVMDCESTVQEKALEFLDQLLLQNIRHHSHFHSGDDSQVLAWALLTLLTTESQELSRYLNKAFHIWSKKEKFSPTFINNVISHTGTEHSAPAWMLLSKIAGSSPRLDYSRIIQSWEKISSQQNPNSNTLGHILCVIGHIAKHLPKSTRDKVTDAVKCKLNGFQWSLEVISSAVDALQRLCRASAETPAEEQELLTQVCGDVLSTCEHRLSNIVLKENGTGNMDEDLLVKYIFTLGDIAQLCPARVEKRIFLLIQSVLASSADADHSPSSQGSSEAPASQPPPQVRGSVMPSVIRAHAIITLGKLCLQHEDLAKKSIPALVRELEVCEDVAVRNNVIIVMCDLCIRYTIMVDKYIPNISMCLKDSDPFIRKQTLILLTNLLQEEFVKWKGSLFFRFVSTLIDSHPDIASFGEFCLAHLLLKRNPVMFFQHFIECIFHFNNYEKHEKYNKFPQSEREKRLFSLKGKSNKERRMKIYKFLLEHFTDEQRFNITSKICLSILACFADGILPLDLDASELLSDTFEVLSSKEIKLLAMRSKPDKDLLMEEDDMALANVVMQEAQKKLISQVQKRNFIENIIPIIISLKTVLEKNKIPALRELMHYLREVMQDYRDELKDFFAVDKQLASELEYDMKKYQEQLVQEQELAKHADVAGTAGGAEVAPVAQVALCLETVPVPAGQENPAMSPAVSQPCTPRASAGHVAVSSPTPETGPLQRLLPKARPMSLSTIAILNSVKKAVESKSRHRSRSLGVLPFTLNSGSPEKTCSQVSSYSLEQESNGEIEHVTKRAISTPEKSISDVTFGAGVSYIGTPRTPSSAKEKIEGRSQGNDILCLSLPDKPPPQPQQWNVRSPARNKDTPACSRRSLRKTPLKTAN
UniProt Q8NCW5: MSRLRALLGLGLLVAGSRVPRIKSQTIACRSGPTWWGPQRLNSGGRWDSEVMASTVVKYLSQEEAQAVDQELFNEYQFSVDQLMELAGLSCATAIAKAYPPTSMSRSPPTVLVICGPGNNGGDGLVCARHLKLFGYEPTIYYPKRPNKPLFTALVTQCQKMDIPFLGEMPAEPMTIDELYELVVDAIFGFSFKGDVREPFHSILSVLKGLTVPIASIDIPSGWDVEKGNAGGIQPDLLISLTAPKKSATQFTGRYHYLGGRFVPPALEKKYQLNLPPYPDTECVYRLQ
UniProt Q5VZE5: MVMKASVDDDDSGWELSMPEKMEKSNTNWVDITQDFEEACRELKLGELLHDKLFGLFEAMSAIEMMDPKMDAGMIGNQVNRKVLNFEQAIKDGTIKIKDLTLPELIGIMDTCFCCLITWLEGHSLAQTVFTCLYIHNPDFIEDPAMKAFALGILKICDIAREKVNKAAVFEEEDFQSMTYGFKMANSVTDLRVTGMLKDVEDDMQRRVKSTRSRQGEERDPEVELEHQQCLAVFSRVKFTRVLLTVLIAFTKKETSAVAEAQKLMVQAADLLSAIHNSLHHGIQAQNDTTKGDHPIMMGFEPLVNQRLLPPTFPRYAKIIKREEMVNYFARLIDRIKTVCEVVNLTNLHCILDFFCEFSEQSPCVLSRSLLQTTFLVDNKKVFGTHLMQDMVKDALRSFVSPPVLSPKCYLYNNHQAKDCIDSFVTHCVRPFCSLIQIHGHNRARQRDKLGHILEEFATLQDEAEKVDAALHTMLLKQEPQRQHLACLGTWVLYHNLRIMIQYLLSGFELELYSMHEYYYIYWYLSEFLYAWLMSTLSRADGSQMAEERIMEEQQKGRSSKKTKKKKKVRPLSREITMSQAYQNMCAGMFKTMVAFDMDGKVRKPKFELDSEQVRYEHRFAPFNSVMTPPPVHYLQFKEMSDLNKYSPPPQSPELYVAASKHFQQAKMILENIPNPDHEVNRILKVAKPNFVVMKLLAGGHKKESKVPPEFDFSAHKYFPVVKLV
UniProt Q99733: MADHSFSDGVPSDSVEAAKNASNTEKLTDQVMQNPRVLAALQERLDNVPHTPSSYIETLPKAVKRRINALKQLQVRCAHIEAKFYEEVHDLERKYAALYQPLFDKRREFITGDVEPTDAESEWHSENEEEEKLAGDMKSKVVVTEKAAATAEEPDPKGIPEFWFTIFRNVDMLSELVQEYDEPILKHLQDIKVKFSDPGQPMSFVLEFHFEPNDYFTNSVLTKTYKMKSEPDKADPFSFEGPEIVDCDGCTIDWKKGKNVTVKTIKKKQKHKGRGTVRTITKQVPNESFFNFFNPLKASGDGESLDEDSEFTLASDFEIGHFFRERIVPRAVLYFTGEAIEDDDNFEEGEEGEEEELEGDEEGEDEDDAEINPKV
UniProt Q8NC96: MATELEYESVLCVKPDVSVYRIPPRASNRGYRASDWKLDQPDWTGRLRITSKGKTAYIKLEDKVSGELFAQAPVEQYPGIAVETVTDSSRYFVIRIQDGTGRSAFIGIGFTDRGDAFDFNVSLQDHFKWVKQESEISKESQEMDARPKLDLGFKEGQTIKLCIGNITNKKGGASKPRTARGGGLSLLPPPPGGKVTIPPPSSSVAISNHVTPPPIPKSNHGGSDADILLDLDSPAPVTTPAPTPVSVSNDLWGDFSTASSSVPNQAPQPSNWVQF
UniProt O75251, whole entry, looked up: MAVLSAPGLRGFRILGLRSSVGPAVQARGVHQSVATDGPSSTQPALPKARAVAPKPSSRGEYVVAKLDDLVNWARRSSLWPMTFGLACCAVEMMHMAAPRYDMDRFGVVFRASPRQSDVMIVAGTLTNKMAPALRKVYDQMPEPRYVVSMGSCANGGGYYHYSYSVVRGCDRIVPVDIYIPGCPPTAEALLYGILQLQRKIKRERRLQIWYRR
UniProt O76041: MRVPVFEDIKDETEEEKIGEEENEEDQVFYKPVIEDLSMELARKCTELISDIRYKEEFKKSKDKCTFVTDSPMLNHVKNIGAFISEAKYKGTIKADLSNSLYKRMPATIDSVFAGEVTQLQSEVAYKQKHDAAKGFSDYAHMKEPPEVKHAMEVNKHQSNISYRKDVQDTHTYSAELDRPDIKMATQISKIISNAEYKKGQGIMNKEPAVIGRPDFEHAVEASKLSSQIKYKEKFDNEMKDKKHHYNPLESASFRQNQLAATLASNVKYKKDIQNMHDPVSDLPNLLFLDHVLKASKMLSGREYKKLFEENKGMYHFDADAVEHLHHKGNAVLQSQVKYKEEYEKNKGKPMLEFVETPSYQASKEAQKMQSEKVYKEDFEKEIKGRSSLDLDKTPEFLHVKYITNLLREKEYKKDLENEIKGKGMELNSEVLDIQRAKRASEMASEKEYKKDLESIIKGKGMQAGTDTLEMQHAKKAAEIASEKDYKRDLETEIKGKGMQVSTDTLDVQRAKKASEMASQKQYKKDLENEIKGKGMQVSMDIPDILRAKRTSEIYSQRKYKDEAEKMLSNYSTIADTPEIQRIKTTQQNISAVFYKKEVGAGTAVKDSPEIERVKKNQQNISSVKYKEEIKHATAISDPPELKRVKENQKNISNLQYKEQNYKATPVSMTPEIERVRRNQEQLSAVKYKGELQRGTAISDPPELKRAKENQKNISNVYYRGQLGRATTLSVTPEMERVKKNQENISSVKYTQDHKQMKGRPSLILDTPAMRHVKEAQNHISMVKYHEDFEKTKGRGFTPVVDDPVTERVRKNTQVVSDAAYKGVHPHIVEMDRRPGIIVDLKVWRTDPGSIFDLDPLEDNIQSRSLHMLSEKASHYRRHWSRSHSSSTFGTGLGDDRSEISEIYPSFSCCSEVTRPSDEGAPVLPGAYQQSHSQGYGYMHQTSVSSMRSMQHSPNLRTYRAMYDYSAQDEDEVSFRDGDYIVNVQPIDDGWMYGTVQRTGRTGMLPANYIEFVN

Experiments:
Assay in all cases: log2 fold change, soluble protein after heating vs DMSO (PISA); higher = thermal stabilisation; K562 cells, 10 uM, 30 min; active = over 0.2 and 3.5 SD of the protein, either way, in both replicates (recomputed)
[1] = compound: C1=CC=C(C=C1)[C@H](COC2=CC3=C(C=C2)NC(=O)N3)NC(=O)C4=CC=CN(C4=O)CC5=CC(=C(C=C5)F)F
Method in brief: (§1)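 K562 cells at 2×10^6 cells/mL were given 10 μM compound for 30 min. Aliquots then went through 3 min of heating across 48°C-58°C, were pooled, and were extracted in PBS with 0.5% NP-40 at 4°C, and the supernatant after 21,000xg for 90 min was quantified by TMTpro 16plex LC-MS/MS with channel sums equalised. Thermal stability relative to control samples, from duplicates, is given as log2 fold change.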

[2] = compound: CC1=C(SC2=C1C(=N[C@H](C3=NN=C(N32)C)CC(=O)N)C4=CC=C(C=C4)Cl)C
Method in brief: as §1

[3] = compound: CC1=C2C(=CC=C1)N=C(N(C2=O)C3=CC=CC=C3C)CN4C=NC5=C(N=CN=C54)N
Method in brief: as §1

[4] = compound: Cc1sc2c(c1C)C(c1ccc(Cl)cc1)=N[C@@H](CC(=O)OC(C)(C)C)c1nnc(C)n1-2
Method in brief: as §1

[5] = compound: c1ccc([C@@H]2C[C@H]2NC2CCNCC2)cc1
Method in brief: as §1

Measured: log2 fold change

NDUFAF7 (UniProt Q7L592)
inactive: [1] -0.008 | [2] -0.033 | [3] 0.081 | [4] -0.034 | [5] -0.036

NCAPD3 (UniProt P42695)
inactive: [1] 0.034 | [2] -0.03 | [3] -0.077 | [4] 0.01 | [5] -0.045

NAXE (UniProt Q8NCW5)
inactive: [1] 0.023 | [2] 0.108 | [3] 0.029 | [4] -0.098 | [5] -0.026

NAA35 (UniProt Q5VZE5)
inactive: [1] -0.012 | [2] 0.051 | [3] -0.043 | [4] -0.022 | [5] -0.034

NAP1L4 isoform 2 (UniProt Q99733)
inactive: [1] 0.011 | [2] -0.007 | [3] 0.016 | [4] -0.007 | [5] 0.02

Two entries picked at random from the list so far:
NAXE (UniProt Q8NCW5)
inactive: [1] 0.023 | [2] 0.108 | [3] 0.029 | [4] -0.098 | [5] -0.026

NCAPD3 (UniProt P42695)
inactive: [1] 0.034 | [2] -0.03 | [3] -0.077 | [4] 0.01 | [5] -0.045

Additional results.

NECAP1 (UniProt Q8NC96)
inactive: [1] 0.017 | [2] 0.033 | [3] 0.073 | [4] -0.02 | [5] -0.01

NDUFS7 (UniProt O75251)
inactive: [1] 0 | [2] 0.062 | [3] 0.015 | [4] -0.051 | [5] -0.022

NDUFB10 (UniProt O96000)
inactive: [1] 0.048 | [2] 0.009 | [3] 0.06 | [4] -0.031 | [5] 0.002

NEBL (UniProt O76041)
inactive: [1] 0.19 | [2] -0.088 | [3] 0.032 | [4] -0.022 | [5] 0.017
